Experimental findings from the supplement of paper PMC10338343 are described below.

± gives the standard deviation. Only a part is listed here, and it is no random draw. Many entries were measured with a wide error.

This assay deals with EfPiwi piRISC loaded with piRNA #1 (26 nt). The experiment in a line: pre-steady-state target cleavage rate (min^-1); guide: piRNA #1 5'p-UGAGGUAGUAGGUUGUAUAGUAUCCA; MIWI and MILI are mouse PIWI proteins and EfPiwi is from a freshwater sponge; tags in brackets are library labels; higher = faster piRNA-guided slicing of the target. As to conditions: auxiliary factor: 500 nM Ephydatia muelleri Gtsf1. The procedure: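 Cleave-'n-Seq: a library of target RNAs (target site in constant flanks) at […] was incubated with 1 nM active freshwater sponge Ephydatia fluviatilis Piwi piRISC (synthetic 5'-monophosphorylated piRNA guide) with or without 500 nM EmGtsf1 at 33 °C for 1 min to 16 h. Uncleaved targets were sequenced and the pooled three trials fitted to a burst-and-steady-state model to give the pre-steady-state cleavage rate (min^-1). Sequence is the target site only. Fits with R² ≤ 0 are excluded.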
As to GGAGACCUAUCUAUACAACGUACUUCCUCA, the “pre-steady-state target cleavage rate” value came to 0.001 ± 0.0028.

In the case of GGAGACCUAUGAUAUUAACCUACUACCUCA, the “pre-steady-state target cleavage rate” value was 0.000323 ± 0.0096.

On to GGAGACGAUACUAUACAACGAACUACCUCA, for which the “pre-steady-state target cleavage rate” value was 0.00251 ± 0.0024.

Consider GGAGUGGAUACUAUACUAGCUACUACCUCA, for which the “pre-steady-state target cleavage rate” value came to 0.0081 ± 0.0031.

Regarding GGAGACCAUACUAUACAACCUUCUACGUCA, the “pre-steady-state target cleavage rate” value was 0.00387 ± 0.0029.

On to GGAGACCUAAGUAUACAUCCUACUACCUCA, for which the “pre-steady-state target cleavage rate” value was 0.00219 ± 0.0029.

Turning to GGAGAGCAUACUAUACAUCCUACUACCUCA, the “pre-steady-state target cleavage rate” value came out at 0.00491 ± 0.0024.

For the sequence GGAGAGGAUUCUAUACUACCUACUACCUCA, the “pre-steady-state target cleavage rate” value was determined as 0.00299 ± 0.0038.

As to GGAGACCUUACUAUACAAGCAACUACCUCA, the “pre-steady-state target cleavage rate” value was 0.00336 ± 0.0042.

GGAGACCUAUGAUAAUCAACCUACUACCUCA: the “pre-steady-state target cleavage rate” value was 0.000973 ± 0.0077.

For GGAGACCUAACAAUACAACGUACUACCUCA, the “pre-steady-state target cleavage rate” value amounted to 0.00158 ± 0.0059.

In the case of GGAGACCUAUGUAUACAACCUACCUACCUCA, the “pre-steady-state target cleavage rate” value stood at 0.000582 ± 0.011.

With GGAGACCUAUGAUUUCAACCUAGUACCUCA, the “pre-steady-state target cleavage rate” value came to 0.00098 ± 0.0072.

For GGAGAGGAUACAUUACAACCUACUACCUCA, the “pre-steady-state target cleavage rate” value came out at 0.007 ± 0.0035.

Take GGAGACCUAUGAUUUCAUCCUACUACCUCA: the “pre-steady-state target cleavage rate” value worked out at 0.00175 ± 0.0048.

On to GGAGACGAUACUAUACUAGCUACUACCUCA, for which the “pre-steady-state target cleavage rate” value was 0.00469 ± 0.0025.

On to GGAGACCGUACUAUACAACCUACUACCUCA, for which the “pre-steady-state target cleavage rate” value is 0.156 ± 0.049.

Turning to GGAGACGAUACUAUAGAACCUAGUACCUCA, the “pre-steady-state target cleavage rate” value was 0.0018 ± 0.0015.

On to GGAGAGGAUUCUAUACAACCUACUACCUGA, for which the “pre-steady-state target cleavage rate” value came out at 0.00208 ± 0.0025.

Regarding GGAGACCUAUGAUAACAACCUACUGCCUCA, the “pre-steady-state target cleavage rate” value came to 0.000756 ± 0.0071.

With GGAGACGAUACUAUUCAACCUUCUACCUCA, the “pre-steady-state target cleavage rate” value turned out to be 0.00443 ± 0.0025.

Take GGAGACCUAUGAUAACAACCUACUACCCCA: the “pre-steady-state target cleavage rate” value was determined as 0.00113 ± 0.0081.

For the sequence GGAGACCUAUGUAUACAACCUACGUACCUCA, the “pre-steady-state target cleavage rate” value amounted to 0.000135 ± 0.024.

On to GGAGACCUAUGUAUACAACCUACUACACUCA, for which the “pre-steady-state target cleavage rate” value came out at 0.000224 ± 0.017.

As for GGAGACCUAACUAUACAGACCUACUACCUCA, the “pre-steady-state target cleavage rate” value worked out at 0.00153 ± 0.0049.

As for GGAGACCUAUGUAUACAACCGUACUACCUCA, the “pre-steady-state target cleavage rate” value was 0.000196 ± 0.016.

For GGAGACCUAUCUAUACUACCUACUAGCUCA, the “pre-steady-state target cleavage rate” value is 0.00208 ± 0.0058.

In the case of GGAGAGGAUACUAUACCACCUACUACCUCA, the “pre-steady-state target cleavage rate” value came to 0.00648 ± 0.003.

Take GGAGACCAUACUAUACUACCUACUAGCUCA: the “pre-steady-state target cleavage rate” value is 0.0033 ± 0.0038.

As for GGAGACCUAUGAAUACAACCUACAACCUCA, the “pre-steady-state target cleavage rate” value amounted to 0.000389 ± 0.006.

As to GGAGAGGAUACUAUACAUACCUACUACCUCA, the “pre-steady-state target cleavage rate” value is 0.00503 ± 0.0053.

For the sequence GGAGUGGAUACUGAUACAACCUACUACCUCA, the “pre-steady-state target cleavage rate” value is 0.0129 ± 0.0062.

With GGAGACCUAUGAUAUCAACCUUCUACCACA, the “pre-steady-state target cleavage rate” value amounted to 0.000132 ± 0.016.

GGAGACCUAUGAAAUACAACCUACUACCUCA: the “pre-steady-state target cleavage rate” value is 0.00445 ± 0.0038.

As to GGAGACCUUACUAUACAAACCUACUACCUCA, the “pre-steady-state target cleavage rate” value amounted to 0.0103 ± 0.0047.

Regarding GGAGAGGAUACUUUACAACCUACUACCUCA, the “pre-steady-state target cleavage rate” value was 0.00667 ± 0.0036.

For GGAGACGUUACUAUACAACCUACUUCCUCA, the “pre-steady-state target cleavage rate” value amounted to 0.00144 ± 0.0025.

Take GGAGACCAUAGUAUACUACCUACUACCUCA: the “pre-steady-state target cleavage rate” value amounted to 0.00298 ± 0.0038.

For the sequence GGAGACCUAUCUAUACAUGGUACUACCUCA, the “pre-steady-state target cleavage rate” value was found to be 0.00196 ± 0.0053.

With GGAGUGGAUAGUAUACAACGUACUACCUCA, the “pre-steady-state target cleavage rate” value amounted to 0.00231 ± 0.0021.
